Values quoted from earlier work in patent publication US8530492B2, “Oligomer-protein tyrosine kinase inhibitor conjugates” (Nektar Therapeutics, priority 2009, dated 2013).

Conditions: control compounds of the Caco-2 assay; cited from earlier work

CC(C)NCC(O)COc1ccc(CC(N)=O)cc1 (stereo not shown) [atenolol]
human absorption: approximately 50%
